From patent publication US8247372B2 (University of Southampton, priority 2006, dated 2012)

experiment: general procedure: solution-phase peptide synthesis; DMAP (acylation with 3); MNBA/DMAP (macrolactonisation); settings: coupling step

For “(3S,4R)-3-Hydroxy-4-{2-[(R)-2-((Z)-(S)-3-hydroxy-7-tritylsulfanyl-hept-4-enoylamino)-3-phenyl-propionylamino]-3-tritylsulfanyl-propionylamino}-5-methyl-hexanoic acid allyl ester”, which step yield is on record?
The step yield was 55%.

With “(3S,4R)-3-hydroxy-4-{(S)-2-[(R)-2-((E)-(R)-3-hydroxy-7-tritylsulfanyl-hept-4-enoylamino)-4-methyl-pentanoylamino]-3-tritylsulfanyl-propionylamino}-5-methyl-hexanoic acid allyl ester” as the substance, how does the step yield read?
The step yield was 67%.

For “(3S,4R)-3-hydroxy-4{(S)-2-[(R)-2-((E)-(S)-3-hydroxy-7-tritylsulfanyl-hept-4-enoylamino)-propionylamino]-3-tritylsulfanyl-propionylamino}-5-phenyl-pentanoic acid allyl ester”, which step yield is on record?
Its step yield is 72%.

For “3-[(R)-2-[(S)-1-((1R,2S)-3-allyloxycarbonyl-2-hydroxy-1-isopropyl-propylcarbamoyl)-2-tritylsulfanyl-ethylcarbamoyl]-2-((E)-(S)-3-hydroxy-7-tritylsulfanyl-hept-4-enoylamino)-ethyl]-indole-1-carboxylic acid tert-butyl ester”, which step yield is on record?
The step yield was 58%.

With “(3S,4R)-3-hydroxy-4{(S)-2-[(R)-2-((E)-(S)-3-hydroxy-7-tritylsulfanyl-hept-4-enoylamino)-3-phenyl-propionylamino]-3-tritylsulfanyl-propionylamino}-5-phenyl-pentanoic acid allyl ester” as the substance, how does the step yield read?
Its step yield is 68%.

same assay, conditions: cyclisation step

With “3-[(2S,6R,9S,12R,13S)-13-hydroxy-12-isopropyl-4,7,10,15-tetraoxo-2-((E)-4-tritylsulfanyl-but-1-enyl)-9-tritylsulfanylmethyl-1-oxa-5,8,11-triaza-cyclopentadec-6-ylmethyl]-indole-1-carboxylic acid tert-butyl ester” as the substance, how does the cyclisation yield read?
Its cyclisation yield is 55%.

With “(2S,6R,9 S,12R,13R)-13-Hydroxy-6-isobutyl-12-isopropyl-2-((E)-4-tritylsulfanyl-but-1-enyl)-9-tritylsulfanylmethyl-1-oxa-5,8,11-triaza-cyclopentadecane-4,7,10,15-tetraone” as the substance, how does the cyclisation yield read?
Its cyclisation yield is 47%.

Which cyclisation yield does the source give for “(3R,7S,10S,13R,14S)-7-benzyl-14-hydroxy-13-isopropyl-3-((E)-4-tritylsulfanyl-but-1-enyl)-10-tritylsulfanylmethyl-1,2-dioxa-4,9,12-triaza-cyclohexadecane-5,8,11,16-tetraone” here?
The cyclisation yield was 58%.

Which cyclisation yield does the source give for “(2S,6R,9S,12R,13S)-6,12-dibenzyl-13-hydroxy-2-((E)-4-tritylsulfanyl-but-1-enyl)-9-tritylsulfanyl methyl-1-oxa-5,8,11-triaza-cyclopentadecane-4,7,10,15-tetraone” here?
Its cyclisation yield is 38%.

Which cyclisation yield does the source give for “(2S,6R,9S,12R,13S)-12-benzyl-13-hydroxy-6-methyl-2-((E)-4-tritylsulfanyl-but-1-enyl)-9-tritylsulfanylmethyl-1-oxa-5,8,11-triaza-cyclopentadecane-4,7,10,15-tetraone” here?
Its cyclisation yield is 42%.

same assay, conditions: late stage modification step

Which step yield does the source give for “(3S,4R)-3-Hydroxy-4-{(S)-2-[(R)-2-((E)-(R)-3-hydroxy-7-tritylsulfanyl-hept-4-enoylamino)-4-methyl-pentanoylamino]-3-tritylsulfanyl-propionylamino}-5-methyl-hexanoic acid” here?
Its step yield is 63%.

For “(3S,4R)-3-hydroxy-4{(S)-2-[(R)-2-((E)-(S)-3-hydroxy-7-tritylsulfanyl-hept-4-enoylamino)-3-phenyl-propionylamino]-3-tritylsulfanyl-propionylamino}-5-phenyl-pentanoic acid”, which step yield is on record?
The step yield was 69%.

For “3-[(R)-2-[(S)-1-((1R,2S)-3-carboxy-2-hydroxy-1-isopropyl-propylcarbamoyl)-2-tritylsulfanyl-ethylcarbamoyl]-2-((E)-(S)-3-hydroxy-7-tritylsulfanyl-hept-4-enoylamino)-ethyl]-indole-1-carboxylic acid tert-butyl ester”, which step yield is on record?
The step yield was 70%.

With “(3S,4R)-3-hydroxy-4{(S)-2-[(R)-2-((E)-(S)-3-hydroxy-7-tritylsulfanyl-hept-4-enoylamino)-propionylamino]-3-tritylsulfanyl-propionylamino}-5-phenyl-pentanoic acid” as the substance, how does the step yield read?
Its step yield is 61%.

With “(3S,4R)-3-hydroxy-4-((S)-2-{(S)-2-[((E)-(R)-1-hydroxy-5-tritylsulfanyl-pent-2-enylcarbamoyl)-methyl]-3-phenyl-propionylamino}-3-tritylsulfanyl-propionylamino)-5-methyl-hexanoic acid” as the substance, how does the step yield read?
Its step yield is 37%.

same assay, conditions: oxidative folding step

Which oxidative folding yield does the source give for “(E)-(1S,5R,6R,9S,20R)-5-Hydroxy-20-isobutyl-6-isopropyl-2-oxa-11,12-dithia-7,19,22-triaza-bicyclo[7.7.6]docos-15-ene-3,8,18,21-tetraone” here?
The oxidative folding yield was 82%.

For “3-((E)-(1S,5S,6R,9 S,20R)-5-Hydroxy-6-isopropyl-3,8,18,21-tetraoxo-2-oxa-11,12-dithia-7,19,22-triaza-bicyclo[7.7.6]docos-15-en-20-ylmethyl)-indole-1-carboxylic acid tert-butyl ester”, which oxidative folding yield is on record?
Its oxidative folding yield is 46%.

For “(E)-(1R,6S,7R,10S,21S)-21-benzyl-6-hydroxy-7-isopropyl-2,3-dioxa-12,13-dithia-8,18,23-triaza-bicyclo[8.7.6]tricos-16-ene-4,9,19,22-tetraone”, which oxidative folding yield is on record?
The oxidative folding yield was 68%.
